# Some of the results follow.
# Amino acid sequences for entries named in this document (tags omitted).
# UniProt Q0JBA9, entry or part of it: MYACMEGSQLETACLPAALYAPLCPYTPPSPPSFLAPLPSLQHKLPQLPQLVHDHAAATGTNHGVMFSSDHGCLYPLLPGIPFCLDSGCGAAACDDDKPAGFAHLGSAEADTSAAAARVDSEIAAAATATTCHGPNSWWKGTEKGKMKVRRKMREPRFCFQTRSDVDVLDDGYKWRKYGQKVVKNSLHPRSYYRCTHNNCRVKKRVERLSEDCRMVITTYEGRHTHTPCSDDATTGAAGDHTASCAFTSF
# Biological target: OsWRKY34 (Oryza sativa, UniProt Q0JBA9 1-250)
# Test: protein-binding microarray (RPBM); PBS, 2% BSA, 51.3 ng/ul salmon testes DNA, 50 uM zinc acetate, 200 nM TF, 25 C, 1 h; high values mean tight binding
# Conditions: protein: recombinant; tags: N-terminal polyhistidine and DsRed monomer fusion (pET32a); label: CyDye5-dUTP incorporated in the synthesized complementary strand; 3' TTTTT single-stranded linker to array surface; dsDNA, one strand shown
# Procedure, shortened: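 Transcription factors were made in E. coli BL21-CodonPlus as N-terminal fusions to a polyhistidine tag and DsRed, then purified on Ni–NTA. After primer extension with Cy5-dUTP and blocking with 2% BSA, a custom Agilent array was exposed for 1 h at 25 °C to 200 nM protein in PBS, 2% BSA, salmon testes DNA and 50 µM zinc acetate. Washed arrays were scanned on an Axon 4000B, and the binding signal is per-feature fluorescence intensity in arbitrary units.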
row,Sequence,binding signal
1,TCCCGTTCTTGTTCACGGTCAACTCATCGTGGCCCACAATCGGAGTCACCTAGTGCAG,9350 fluorescence intensity (a.u.)
2,CCCTCACCGCTCACTGGCTCTCGTCTCTCGCCGCCGCCGCCGGAGTCACCTAGTGCAG,12400 fluorescence intensity (a.u.)
3,AACCCGGCCGCTCATGCATCACAGAACCTTATCCTGTTCGCGGAGTCACCTAGTGCAG,10300 fluorescence intensity (a.u.)
4,TAGCGTCGTTGACTTTTGAACACATTTTTATCATTTAAATCGGAGTCACCTAGTGCAG,22400 fluorescence intensity (a.u.)
5,GACCATAGTGTCTAGTCCAGTCCTCGGAAGTTCGTACTCTCGGAGTCACCTAGTGCAG,8420 fluorescence intensity (a.u.)
6,CTTCACTAATCACGGGCTTAAACGCATCTTGTTACATTCTCGGAGTCACCTAGTGCAG,9840 fluorescence intensity (a.u.)
7,CCACCAATATATGCTTTTTCAGCTCGCACCATATGCACTGCGGAGTCACCTAGTGCAG,8340 fluorescence intensity (a.u.)
8,AAAATTCTTGGTCTTCTTGGTCTCGGTTAGTTCGGTTCGACGGAGTCACCTAGTGCAG,8110 fluorescence intensity (a.u.)
9,ATTCTCTCTCGCCTCATTGACACTACTGCAACATTATTTTCGGAGTCACCTAGTGCAG,12900 fluorescence intensity (a.u.)
10,TATGTCTAATATTCCTATGTTTTTCATGTGTGCTAATCAACGGAGTCACCTAGTGCAG,9190 fluorescence intensity (a.u.)
11,GTTGGTTCCTCTCCGTTATGTTCCTGTGCTAGCTTCTGCCCGGAGTCACCTAGTGCAG,11600 fluorescence intensity (a.u.)
12,AATAGTTTGTAGGTGTGGCAATTAAGCGTGAGTTTCGGTCCGGAGTCACCTAGTGCAG,8120 fluorescence intensity (a.u.)
13,GCCCGCCTGTCATTTTATGTACTTTTCGTTGCCGTGTTGGCGGAGTCACCTAGTGCAG,9000 fluorescence intensity (a.u.)
14,GCTATTATTTTCTTTCCTACTATAAAGTTCAGTTAGTACACGGAGTCACCTAGTGCAG,10200 fluorescence intensity (a.u.)
15,CCCGCAGCCCGCGCCCGTCTTTCTCGTCCGAAGTCCTCTGCGGAGTCACCTAGTGCAG,8030 fluorescence intensity (a.u.)
16,GCTTGAGCTCTGGGTTTATTAATTTTTTTTGGGGTTGCTGCGGAGTCACCTAGTGCAG,9220 fluorescence intensity (a.u.)
17,CCGGCTGCCGCTCCACCGCTGTCGCCCACTTCGGCCACTACGGAGTCACCTAGTGCAG,8750 fluorescence intensity (a.u.)
18,ACGCTTCTCCTGCCTGCCTGCCTGCTGCTGCTGCCGCGCGCGGAGTCACCTAGTGCAG,9240 fluorescence intensity (a.u.)
19,CGAGTCTTTTGTGCGGGTGGTTGGGGCGTGGGCGGTGGCGCGGAGTCACCTAGTGCAG,23100 fluorescence intensity (a.u.)
20,CGTTGTCGCTTTCCTCCACGTATGGTGTTTTTTCTCCTCCCGGAGTCACCTAGTGCAG,8530 fluorescence intensity (a.u.)
21,CTACAACTCCTGGCTGTTACCCAAGCAAGTTAGCTTTTCTCGGAGTCACCTAGTGCAG,9630 fluorescence intensity (a.u.)
22,ACTCTAAGTCATTTTATAATGTATCCATGGTTGGTCAACTCGGAGTCACCTAGTGCAG,9620 fluorescence intensity (a.u.)
23,TTTTCTTGTTTGATTGACATAATGGGCCCTACATATTTTTCGGAGTCACCTAGTGCAG,8440 fluorescence intensity (a.u.)
24,CCACCGCTTTAGGCGCAGCCGACCGGAATTCACTCTCTCACGGAGTCACCTAGTGCAG,9640 fluorescence intensity (a.u.)
25,GTGTGTTTCTCCTTGCTTATTTTGTCCATTCATTCATTCTCGGAGTCACCTAGTGCAG,13800 fluorescence intensity (a.u.)
26,GTTTGTTGATGTTATTTCTTGGATTGAGGCGTTTGTCAATCGGAGTCACCTAGTGCAG,8040 fluorescence intensity (a.u.)
27,CGTATCCCACACCTCGCTCACCTCACTGCCCTCGCTTTCGCGGAGTCACCTAGTGCAG,9500 fluorescence intensity (a.u.)

# Another view of part of the listing above:
row | Sequence | binding signal
25 | GTGTGTTTCTCCTTGCTTATTTTGTCCATTCATTCATTCTCGGAGTCACCTAGTGCAG | 13800 fluorescence intensity (a.u.)
26 | GTTTGTTGATGTTATTTCTTGGATTGAGGCGTTTGTCAATCGGAGTCACCTAGTGCAG | 8040 fluorescence intensity (a.u.)

# A portion taken from the entries so far, as a working copy:
row,Sequence,binding signal
14,GCTATTATTTTCTTTCCTACTATAAAGTTCAGTTAGTACACGGAGTCACCTAGTGCAG,10200 fluorescence intensity (a.u.)
15,CCCGCAGCCCGCGCCCGTCTTTCTCGTCCGAAGTCCTCTGCGGAGTCACCTAGTGCAG,8030 fluorescence intensity (a.u.)

# More entries

row,Sequence,binding signal
1,GTTAATCTATGGCTCTTTTTTTTTTCCGCCGGAACGGTTCCGGAGTCACCTAGTGCAG,10800 fluorescence intensity (a.u.)
2,AGGTTGCTCTGGATTTTTGCGCGTGTCGCTGTTGGTTTTGCGGAGTCACCTAGTGCAG,8050 fluorescence intensity (a.u.)
3,AACTTCATCTTGCATTCATATTTTGTCAGCCTTATCTAACCGGAGTCACCTAGTGCAG,11200 fluorescence intensity (a.u.)
4,CGTTGGCAGTTAATCCGTAACCTTAGGTTGAGCATATACTCGGAGTCACCTAGTGCAG,8600 fluorescence intensity (a.u.)
5,TTTGTGATTAGATCTGTCTGTCCTTTTTCGGTTGAACGTTCGGAGTCACCTAGTGCAG,10800 fluorescence intensity (a.u.)
6,GAACAAAGTGACCAGCGTCCTTTCATGCCAGCTACAAACACGGAGTCACCTAGTGCAG,9060 fluorescence intensity (a.u.)
7,CTGGAGGATCTTCACAACACCGGTATCATCTCATCTCATCCGGAGTCACCTAGTGCAG,12400 fluorescence intensity (a.u.)
8,ACTGCTTGGTCATTGTCGGATTCTCCTGTTGCCCTATGGTCGGAGTCACCTAGTGCAG,10100 fluorescence intensity (a.u.)
9,ACCATGACATGTCTTCTACCACCCGATCACTTATGCTTTCCGGAGTCACCTAGTGCAG,10500 fluorescence intensity (a.u.)
10,ATCTCCCTGAAGATGTGTGCTTTGTGATGAATTTTTTATACGGAGTCACCTAGTGCAG,8060 fluorescence intensity (a.u.)
11,ATCGCTGTCACGTTTTCCATCATCTTCCCCATCTACACGTCGGAGTCACCTAGTGCAG,8030 fluorescence intensity (a.u.)
12,TTCTCTTCCTTTCCCCTGCCCTTGCACCGCCGCCGCCTTGCGGAGTCACCTAGTGCAG,8160 fluorescence intensity (a.u.)
13,GCATAAGAAAGGTCAATCTCATTCTCATCTAACCAACCCTCGGAGTCACCTAGTGCAG,8100 fluorescence intensity (a.u.)
14,TTTCTTTGTGTTTTGTTTCCTTGTAGGGTATGCTAGATCTCGGAGTCACCTAGTGCAG,9740 fluorescence intensity (a.u.)
15,GCTCGCTTACCTGCTCGCGTTCCATATATCCAGCTGCAGTCGGAGTCACCTAGTGCAG,9160 fluorescence intensity (a.u.)
16,CGAAACAGTACACAATCAGCGGGTGGGTGATCTATCGATACGGAGTCACCTAGTGCAG,8810 fluorescence intensity (a.u.)
17,AACAGCTCTCGATCTGATCGTCCCCACACCGCACGCTGACCGGAGTCACCTAGTGCAG,9930 fluorescence intensity (a.u.)
18,ATATATATATATATATATATAGACGTATTCCTGTATCCGCCGGAGTCACCTAGTGCAG,21000 fluorescence intensity (a.u.)
19,CGGAATATATCCATGGGTGGCCTTGTTTTGAAGATTTAATCGGAGTCACCTAGTGCAG,8990 fluorescence intensity (a.u.)
20,ATCTCAAGGCTTCCATAATTTACTTACCATGTGTTTTGACCGGAGTCACCTAGTGCAG,8950 fluorescence intensity (a.u.)
21,ATAACTAGCCCAACACCACGTCCGTTCGACCGTCCCCATCCGGAGTCACCTAGTGCAG,10000 fluorescence intensity (a.u.)
22,TTATAGCCATTGTACTCCTCGTCTACTCCTTAGGATGTTGCGGAGTCACCTAGTGCAG,8580 fluorescence intensity (a.u.)
23,TCTTTATTTATGCCCGTCGTTCAGTTAGTGGTGGAATTATCGGAGTCACCTAGTGCAG,8060 fluorescence intensity (a.u.)
24,TACGGAATTTCTCGAACAGAATAGTTTTCATGTTTTTCACCGGAGTCACCTAGTGCAG,8100 fluorescence intensity (a.u.)
25,CCACGCATACGCTTTCCGTACTAATAATTGTTACTTTTTACGGAGTCACCTAGTGCAG,8500 fluorescence intensity (a.u.)
26,TCCCTTTCCTTTGCGCGCATTTTTTTTTTGTCAGGAAACACGGAGTCACCTAGTGCAG,10600 fluorescence intensity (a.u.)
27,GGCAGTATTTTCATTTTCTTTATTTAATGAACTATTTTCTCGGAGTCACCTAGTGCAG,9600 fluorescence intensity (a.u.)
